The values below come from the supplement of paper PMC12819154, “High-throughput peptide-centric local stability assay extends protein–ligand identification to membrane proteins, tissues and bacteria” (Nature Structural & Molecular Biology, 2025).

Protein sequences, listed by entry. Tags and fused reporters are not part of them. Lines headed by an entry give the natural chain unless they say otherwise; changes in a name come on top.
UniProt Q8R0F3: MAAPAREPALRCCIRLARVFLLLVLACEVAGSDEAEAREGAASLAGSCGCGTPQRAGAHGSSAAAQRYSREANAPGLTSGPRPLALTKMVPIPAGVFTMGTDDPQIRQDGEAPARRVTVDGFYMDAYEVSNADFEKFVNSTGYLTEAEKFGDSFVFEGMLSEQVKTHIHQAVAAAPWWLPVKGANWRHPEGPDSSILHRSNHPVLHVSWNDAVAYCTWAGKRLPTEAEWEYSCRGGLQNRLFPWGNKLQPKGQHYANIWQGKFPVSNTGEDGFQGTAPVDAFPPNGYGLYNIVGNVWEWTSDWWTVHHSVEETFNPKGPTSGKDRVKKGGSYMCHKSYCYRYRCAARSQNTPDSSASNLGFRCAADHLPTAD
UniProt Q8R164: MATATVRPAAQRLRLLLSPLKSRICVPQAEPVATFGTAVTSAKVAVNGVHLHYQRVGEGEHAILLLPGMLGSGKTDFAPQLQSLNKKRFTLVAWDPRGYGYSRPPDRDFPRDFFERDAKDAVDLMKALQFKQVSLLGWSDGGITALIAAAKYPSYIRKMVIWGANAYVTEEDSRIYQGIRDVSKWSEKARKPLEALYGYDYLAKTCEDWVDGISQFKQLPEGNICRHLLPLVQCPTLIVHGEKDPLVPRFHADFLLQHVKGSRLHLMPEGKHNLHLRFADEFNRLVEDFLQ
UniProt Q8K3Z9, whole entry: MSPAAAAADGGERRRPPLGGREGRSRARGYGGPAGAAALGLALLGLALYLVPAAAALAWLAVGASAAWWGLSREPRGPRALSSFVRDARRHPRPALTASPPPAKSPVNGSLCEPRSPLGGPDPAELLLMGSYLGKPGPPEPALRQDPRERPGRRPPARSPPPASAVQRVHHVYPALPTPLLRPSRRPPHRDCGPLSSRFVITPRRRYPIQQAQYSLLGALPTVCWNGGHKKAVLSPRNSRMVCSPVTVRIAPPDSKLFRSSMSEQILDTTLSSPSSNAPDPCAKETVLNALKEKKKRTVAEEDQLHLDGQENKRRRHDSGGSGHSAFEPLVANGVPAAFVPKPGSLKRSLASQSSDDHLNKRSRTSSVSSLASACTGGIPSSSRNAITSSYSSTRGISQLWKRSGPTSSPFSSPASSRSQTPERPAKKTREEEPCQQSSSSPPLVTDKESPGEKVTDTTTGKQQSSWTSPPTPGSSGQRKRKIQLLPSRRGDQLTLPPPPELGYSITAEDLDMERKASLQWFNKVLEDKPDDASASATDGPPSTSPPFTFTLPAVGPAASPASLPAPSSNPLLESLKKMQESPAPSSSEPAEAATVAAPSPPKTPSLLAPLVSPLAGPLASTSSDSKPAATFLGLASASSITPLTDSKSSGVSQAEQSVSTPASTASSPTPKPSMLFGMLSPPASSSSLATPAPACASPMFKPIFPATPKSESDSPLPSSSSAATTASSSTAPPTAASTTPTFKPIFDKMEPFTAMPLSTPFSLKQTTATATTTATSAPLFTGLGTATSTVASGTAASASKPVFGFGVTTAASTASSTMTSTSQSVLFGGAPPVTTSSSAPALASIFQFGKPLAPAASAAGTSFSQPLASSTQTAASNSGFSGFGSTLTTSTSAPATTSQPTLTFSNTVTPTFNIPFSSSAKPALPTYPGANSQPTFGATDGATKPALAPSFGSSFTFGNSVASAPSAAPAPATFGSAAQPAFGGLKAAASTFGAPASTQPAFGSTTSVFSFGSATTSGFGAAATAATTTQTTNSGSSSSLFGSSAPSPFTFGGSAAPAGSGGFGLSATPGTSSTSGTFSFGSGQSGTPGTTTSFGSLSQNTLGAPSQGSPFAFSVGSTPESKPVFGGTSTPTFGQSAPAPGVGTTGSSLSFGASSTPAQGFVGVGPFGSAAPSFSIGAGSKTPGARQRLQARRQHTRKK
UniProt Q8K327: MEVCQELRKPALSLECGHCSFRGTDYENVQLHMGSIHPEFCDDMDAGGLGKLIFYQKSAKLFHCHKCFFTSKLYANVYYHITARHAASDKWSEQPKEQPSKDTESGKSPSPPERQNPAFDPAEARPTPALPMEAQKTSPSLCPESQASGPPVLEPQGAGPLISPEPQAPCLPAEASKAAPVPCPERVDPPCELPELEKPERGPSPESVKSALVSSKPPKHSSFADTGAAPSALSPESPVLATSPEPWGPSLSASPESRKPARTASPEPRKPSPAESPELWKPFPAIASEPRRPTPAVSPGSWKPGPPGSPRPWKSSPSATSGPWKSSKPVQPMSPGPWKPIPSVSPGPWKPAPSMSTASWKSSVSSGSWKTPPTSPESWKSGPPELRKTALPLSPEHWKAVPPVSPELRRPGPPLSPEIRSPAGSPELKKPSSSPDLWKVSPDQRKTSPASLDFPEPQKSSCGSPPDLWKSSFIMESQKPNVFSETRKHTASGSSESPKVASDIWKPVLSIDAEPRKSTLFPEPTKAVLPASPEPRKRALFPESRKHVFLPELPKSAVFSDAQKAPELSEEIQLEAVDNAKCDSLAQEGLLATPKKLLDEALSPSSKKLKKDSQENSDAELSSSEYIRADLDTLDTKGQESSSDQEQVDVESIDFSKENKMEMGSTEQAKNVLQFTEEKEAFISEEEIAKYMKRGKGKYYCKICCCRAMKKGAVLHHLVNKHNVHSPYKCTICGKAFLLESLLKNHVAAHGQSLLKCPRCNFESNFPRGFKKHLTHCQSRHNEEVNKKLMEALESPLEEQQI
UniProt Q8K2V1: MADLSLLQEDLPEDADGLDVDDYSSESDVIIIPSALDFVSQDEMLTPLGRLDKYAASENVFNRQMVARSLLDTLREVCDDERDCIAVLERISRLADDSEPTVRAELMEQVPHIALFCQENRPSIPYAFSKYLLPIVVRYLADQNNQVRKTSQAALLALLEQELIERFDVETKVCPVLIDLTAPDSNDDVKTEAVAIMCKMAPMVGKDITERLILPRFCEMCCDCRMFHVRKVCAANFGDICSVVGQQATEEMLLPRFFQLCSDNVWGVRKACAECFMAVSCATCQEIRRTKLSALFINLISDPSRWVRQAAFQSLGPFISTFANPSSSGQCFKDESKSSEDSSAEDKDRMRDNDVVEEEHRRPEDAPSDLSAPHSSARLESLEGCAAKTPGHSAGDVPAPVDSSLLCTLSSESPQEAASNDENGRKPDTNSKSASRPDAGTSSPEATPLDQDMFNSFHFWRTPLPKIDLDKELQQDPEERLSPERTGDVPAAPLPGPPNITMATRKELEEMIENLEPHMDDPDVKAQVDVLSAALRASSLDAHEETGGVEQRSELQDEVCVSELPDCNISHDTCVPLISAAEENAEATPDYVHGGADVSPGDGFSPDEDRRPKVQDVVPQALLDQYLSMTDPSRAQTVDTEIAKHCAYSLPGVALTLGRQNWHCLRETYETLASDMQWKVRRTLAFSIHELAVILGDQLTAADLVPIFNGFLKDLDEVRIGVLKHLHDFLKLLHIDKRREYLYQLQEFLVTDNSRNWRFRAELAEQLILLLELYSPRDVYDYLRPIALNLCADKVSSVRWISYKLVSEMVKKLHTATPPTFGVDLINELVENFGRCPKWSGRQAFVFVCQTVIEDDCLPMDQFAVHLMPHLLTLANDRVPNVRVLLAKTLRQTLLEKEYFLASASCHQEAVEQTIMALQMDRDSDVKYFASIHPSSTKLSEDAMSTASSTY
UniProt Q8R183: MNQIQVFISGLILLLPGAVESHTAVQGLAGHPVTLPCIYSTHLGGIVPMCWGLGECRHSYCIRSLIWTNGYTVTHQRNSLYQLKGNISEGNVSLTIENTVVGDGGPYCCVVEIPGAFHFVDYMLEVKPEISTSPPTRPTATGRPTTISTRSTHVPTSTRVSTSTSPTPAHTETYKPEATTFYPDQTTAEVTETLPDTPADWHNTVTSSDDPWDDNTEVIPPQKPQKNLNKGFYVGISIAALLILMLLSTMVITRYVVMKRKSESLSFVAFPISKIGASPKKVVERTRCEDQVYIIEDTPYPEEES
UniProt Q8K202, whole entry: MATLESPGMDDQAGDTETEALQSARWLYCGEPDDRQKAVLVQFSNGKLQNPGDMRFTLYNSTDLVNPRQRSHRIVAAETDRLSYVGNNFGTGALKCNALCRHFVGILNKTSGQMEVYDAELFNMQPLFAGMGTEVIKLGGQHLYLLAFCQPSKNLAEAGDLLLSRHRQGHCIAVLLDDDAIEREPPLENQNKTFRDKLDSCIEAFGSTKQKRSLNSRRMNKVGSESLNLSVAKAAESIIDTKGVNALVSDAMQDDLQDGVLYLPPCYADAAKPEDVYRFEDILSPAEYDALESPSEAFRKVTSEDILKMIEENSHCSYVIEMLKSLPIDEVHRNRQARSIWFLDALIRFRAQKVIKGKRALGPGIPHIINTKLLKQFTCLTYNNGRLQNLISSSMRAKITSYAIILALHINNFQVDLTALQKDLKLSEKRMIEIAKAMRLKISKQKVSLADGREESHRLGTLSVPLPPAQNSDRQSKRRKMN
UniProt Q8R238: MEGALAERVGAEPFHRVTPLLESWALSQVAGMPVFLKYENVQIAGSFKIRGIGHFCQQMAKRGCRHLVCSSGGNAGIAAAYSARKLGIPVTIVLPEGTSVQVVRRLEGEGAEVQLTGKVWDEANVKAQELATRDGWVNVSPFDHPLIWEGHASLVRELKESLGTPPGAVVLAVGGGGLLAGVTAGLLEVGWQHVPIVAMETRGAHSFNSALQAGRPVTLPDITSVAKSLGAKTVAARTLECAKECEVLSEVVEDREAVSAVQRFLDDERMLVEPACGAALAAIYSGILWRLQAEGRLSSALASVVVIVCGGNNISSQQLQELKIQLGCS
UniProt Q8K310: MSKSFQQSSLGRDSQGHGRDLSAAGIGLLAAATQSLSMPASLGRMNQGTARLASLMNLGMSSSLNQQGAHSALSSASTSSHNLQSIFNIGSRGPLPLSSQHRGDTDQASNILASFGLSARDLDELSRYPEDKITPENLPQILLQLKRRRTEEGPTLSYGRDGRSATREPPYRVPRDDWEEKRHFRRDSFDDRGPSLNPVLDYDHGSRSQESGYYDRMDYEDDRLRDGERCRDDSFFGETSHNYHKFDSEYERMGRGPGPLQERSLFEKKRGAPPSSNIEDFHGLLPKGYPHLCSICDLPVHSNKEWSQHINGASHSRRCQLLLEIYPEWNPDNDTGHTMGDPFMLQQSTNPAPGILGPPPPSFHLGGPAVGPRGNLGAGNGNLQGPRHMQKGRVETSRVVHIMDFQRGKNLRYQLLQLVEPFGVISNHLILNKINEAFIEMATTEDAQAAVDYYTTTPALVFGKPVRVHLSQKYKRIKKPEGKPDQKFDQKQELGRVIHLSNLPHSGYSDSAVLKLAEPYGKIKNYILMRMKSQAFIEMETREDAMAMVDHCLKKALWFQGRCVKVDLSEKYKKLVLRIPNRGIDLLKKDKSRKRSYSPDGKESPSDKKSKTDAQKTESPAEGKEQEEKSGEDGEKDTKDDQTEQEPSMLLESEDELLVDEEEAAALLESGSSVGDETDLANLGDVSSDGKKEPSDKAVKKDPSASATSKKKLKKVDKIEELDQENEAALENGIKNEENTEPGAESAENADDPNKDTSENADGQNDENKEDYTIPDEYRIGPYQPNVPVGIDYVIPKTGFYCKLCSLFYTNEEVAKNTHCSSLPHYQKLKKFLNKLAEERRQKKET
UniProt Q8K3G5: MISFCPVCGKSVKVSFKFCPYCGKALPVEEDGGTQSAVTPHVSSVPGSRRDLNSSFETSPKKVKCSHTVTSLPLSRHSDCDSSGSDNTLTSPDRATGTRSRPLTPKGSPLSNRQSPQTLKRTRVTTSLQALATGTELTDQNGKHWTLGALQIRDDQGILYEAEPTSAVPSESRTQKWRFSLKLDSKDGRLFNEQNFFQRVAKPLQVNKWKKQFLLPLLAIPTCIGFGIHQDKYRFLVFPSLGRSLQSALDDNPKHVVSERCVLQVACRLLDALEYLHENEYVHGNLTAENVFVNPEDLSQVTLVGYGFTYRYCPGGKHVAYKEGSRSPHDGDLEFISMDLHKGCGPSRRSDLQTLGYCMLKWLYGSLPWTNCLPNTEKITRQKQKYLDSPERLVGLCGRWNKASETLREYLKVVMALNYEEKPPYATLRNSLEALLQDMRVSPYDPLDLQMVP
UniProt Q8R0K9: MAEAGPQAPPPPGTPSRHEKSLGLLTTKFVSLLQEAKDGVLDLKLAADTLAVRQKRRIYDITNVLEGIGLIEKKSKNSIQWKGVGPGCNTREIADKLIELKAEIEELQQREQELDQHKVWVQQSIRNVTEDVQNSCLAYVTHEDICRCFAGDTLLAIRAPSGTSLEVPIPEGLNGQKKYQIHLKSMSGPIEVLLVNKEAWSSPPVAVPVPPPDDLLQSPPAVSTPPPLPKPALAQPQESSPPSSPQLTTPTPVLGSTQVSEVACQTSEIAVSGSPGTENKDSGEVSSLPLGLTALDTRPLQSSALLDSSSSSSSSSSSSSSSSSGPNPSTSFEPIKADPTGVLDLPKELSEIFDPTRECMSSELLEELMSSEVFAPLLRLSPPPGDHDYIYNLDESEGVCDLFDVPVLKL
UniProt Q8R0P4: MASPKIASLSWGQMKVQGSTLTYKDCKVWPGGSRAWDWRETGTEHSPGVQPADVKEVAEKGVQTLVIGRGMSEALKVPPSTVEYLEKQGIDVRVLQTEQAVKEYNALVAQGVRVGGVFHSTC

Some of the results follow. Most values lie at the level of the controls, where differences are scatter.

Compound in this test: CN[C@@H]1C[C@H]2O[C@@](C)([C@@H]1OC)n1c3ccccc3c3c4c(c5c6ccccc6n2c5c31)C(=O)NC4 [staurosporine]
The experiment in a line: log2 fold change of tryptic peptide abundance, ligand vs vehicle (limited proteolysis) (log2 ratio); higher = more trypsin-susceptible (destabilized). The following applies: ligand concentration: 20 uM; sample: mouse liver crude lysate; replicate design: treated separately.
With “UniProt Q8K1N2 (peptide sequence: EKEILDHLNRK, peptide start residue: 639)”, the log2 fold change was -0.847.

For the target “UniProt Q8K2I1 (peptide sequence: IQEVFSSYK, peptide start residue: 55)”, the log2 fold change came to 0.242.

For “UniProt Q8R0F3 (peptide sequence: AGAHGSSAAAQR, peptide start residue: 56)”, the log2 fold change was 0.609.

As for “UniProt Q8K3F6 (peptide sequence: FRTAFRMK, peptide start residue: 473)”, the log2 fold change stood at 0.00999.

For “UniProt Q8R164 (peptide sequence: DAKDAVDLMK, peptide start residue: 117)”, the log2 fold change came out at 0.212.

Consider “UniProt Q8K2C9 (peptide sequence: RPLFLAPDFDR, peptide start residue: 99)”, for which the log2 fold change was -0.129.

For “UniProt Q8K4L0 (peptide sequence: ALILSPTR, peptide start residue: 168)”, the log2 fold change was found to be 0.357.

Take “UniProt Q8K296 (peptide sequence: FSGKDMLPVAPEPR, peptide start residue: 872)”: the log2 fold change is -0.414.

As to “UniProt Q8K3Z9 (peptide sequence: SPAAAAADGGER, peptide start residue: 2)”, the log2 fold change is -0.835.

With “UniProt Q8K2I3 (peptide sequence: FKENVEDGR, peptide start residue: 43)”, the log2 fold change was -0.352.

As to “UniProt Q8K327 (peptide sequence: SSFIMESQKPNVFSETR, peptide start residue: 471)”, the log2 fold change was -0.475.

Turning to “UniProt Q8K2Z8 (peptide sequence: AQQSYNSIVQIHEK, peptide start residue: 354)”, the log2 fold change is -0.232.

For the target “UniProt Q8K194 (peptide sequence: KVDGSVNAYAINVSQK, peptide start residue: 119)”, the log2 fold change was -0.108.

As to “UniProt Q8R010 (peptide sequence: VLSTVHTHSSVK, peptide start residue: 148)”, the log2 fold change is -0.185.

As to “UniProt Q8K2V6 (peptide sequence: TYKDCMLMSQHEEPK, peptide start residue: 890)”, the log2 fold change is 0.887.

As to “UniProt Q8K2V1 (peptide sequence: YLADQNNQVR, peptide start residue: 139)”, the log2 fold change is 0.169.

Consider “UniProt Q8R0T2 (peptide sequence: CYSQNSSLR, peptide start residue: 409)”, for which the log2 fold change stood at 0.459.

Turning to “UniProt Q8R183 (peptide sequence: KSESLSFVAFPISK, peptide start residue: 261)”, the log2 fold change was -0.0815.

As for “UniProt Q8K202 (peptide sequence: HFVGILNK, peptide start residue: 102)”, the log2 fold change came out at 0.311.

On to “UniProt Q8R086 (peptide sequence: VVVPGVVGAR, peptide start residue: 368)”, for which the log2 fold change is -0.217.

As for “UniProt Q8K3W3 (peptide sequence: SAETLKHEASYR, peptide start residue: 336)”, the log2 fold change stood at 0.231.

For the target “UniProt Q8K1R7 (peptide sequence: VTLLNAPTKRPR, peptide start residue: 319)”, the log2 fold change was -0.262.

With “UniProt Q8R238 (peptide sequence: LEGEGAEVQLTGK, peptide start residue: 106)”, the log2 fold change was -0.582.

Regarding “UniProt Q8K2J7 (peptide sequence: NEANADILK, peptide start residue: 128)”, the log2 fold change is -0.227.

Regarding “UniProt Q8K310 (peptide sequence: GPLPLSSQHR, peptide start residue: 93)”, the log2 fold change worked out at 0.353.

For “UniProt Q8K4L6 (peptide sequence: RGSWPSRR, peptide start residue: 405)”, the log2 fold change is -0.216.

For the target “UniProt Q8K3G5 (peptide sequence: LFNEQNFFQR, peptide start residue: 190)”, the log2 fold change was found to be 0.419.

As for “UniProt Q8R0K9 (peptide sequence: GVGPGCNTR, peptide start residue: 83)”, the log2 fold change worked out at 0.257.

As for “UniProt Q8K2C8 (peptide sequence: EKDEDAVQFANR, peptide start residue: 394)”, the log2 fold change is -0.472.

Turning to “UniProt Q8R0P4 (peptide sequence: VQGSTLTYK, peptide start residue: 16)”, the log2 fold change was 0.3.

Turning to “UniProt Q8QZS1 (peptide sequence: QLMEGSSK, peptide start residue: 312)”, the log2 fold change is -0.165.
